In this assay the target is T1, CMKLR1-WT-smBiT (human) (UniProt Q99788).
T1 sequence: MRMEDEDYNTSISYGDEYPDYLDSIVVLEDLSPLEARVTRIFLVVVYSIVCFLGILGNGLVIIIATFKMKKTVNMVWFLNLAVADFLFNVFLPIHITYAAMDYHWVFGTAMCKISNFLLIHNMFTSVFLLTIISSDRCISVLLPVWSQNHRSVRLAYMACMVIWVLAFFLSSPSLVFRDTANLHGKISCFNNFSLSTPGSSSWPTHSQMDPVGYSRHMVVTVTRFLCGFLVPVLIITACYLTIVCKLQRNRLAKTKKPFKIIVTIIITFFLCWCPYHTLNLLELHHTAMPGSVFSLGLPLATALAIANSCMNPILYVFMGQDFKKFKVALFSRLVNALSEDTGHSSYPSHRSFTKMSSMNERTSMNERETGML
Description: split reporter.

Protein sequences, listed by entry. Tags and fused reporters are not part of them.
UniProt P49407: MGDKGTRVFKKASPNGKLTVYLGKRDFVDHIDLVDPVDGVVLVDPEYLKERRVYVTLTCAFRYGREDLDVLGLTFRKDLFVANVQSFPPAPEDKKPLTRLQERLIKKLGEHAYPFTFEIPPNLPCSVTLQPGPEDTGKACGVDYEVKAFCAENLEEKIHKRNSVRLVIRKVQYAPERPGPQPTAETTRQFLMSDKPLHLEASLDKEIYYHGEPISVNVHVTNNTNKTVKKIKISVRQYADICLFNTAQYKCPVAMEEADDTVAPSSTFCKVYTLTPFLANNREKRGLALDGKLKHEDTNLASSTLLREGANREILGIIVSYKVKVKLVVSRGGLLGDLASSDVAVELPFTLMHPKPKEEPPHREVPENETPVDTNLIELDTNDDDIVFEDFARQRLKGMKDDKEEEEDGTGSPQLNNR

These are yes or no findings as the source states them, for the method shown. In cells and extracts the contact can be indirect. Some binding calls cover weakened binding; strength is not graded here.

“LgBiT-β-Arr1 (from UniProt P49407 1-418)”: the binding result is listed as “binds”.

The values are drawn from publication doi:10.1101/2023.06.03.543554 (bioRxiv, 2023).
